Test results published in article doi:10.1101/2025.11.24.690153.
Read-outs that look alike come from different tables or passages of the source. These are yes or no findings as the source states them, for the method shown.

Tests used:
[1] = biological target: Bacillus subtilis major pilin ComGC, N-terminal truncation starting from amino acid 28 (B. subtilis) (UniProt P25955); assay: SEC
[2] = biological target: Bacillus subtilis major pilin ComGC, N-terminal truncation starting from amino acid 28 (B. subtilis) (UniProt P25955); assay: SEC; remark: listed apart in the source

binding [1]: no binding | binding [2]: no binding
B1: Bacillus subtilis major pilin ComGC, N-terminal truncation starting from amino acid 28 (domain or fragment, UniProt P25955 28-98)
chain: NVTKHNQTIQKKGCEGLQNMVKAQMTAFELDHEGQTPSLADLQSEGYVKKDAVCPNGKRIIITGGEVKVEH
